Data from article PMC8750328.
These are yes or no findings as the source states them, for the method shown. Binding seen in cells or lysates may run through a third protein. These calls come from enrichment with a bait or labelling near it, and not all partners need be listed. For some of these results: No binding means not detected with the bait.

B1: Nse4 (endogenous, found in Nse1-HBH complexes) (protein, UniProt Q6BDR8 1-300)
chain: MSSIDKRDLRKRYRNLINKVQESRLELVDEENNNLYETITTANDLFSSVDAPTEATLDALLLTKTVDLASIKARQLHIGRPKFNIELFTKNIKQFLNYPTSHSNVTRIQEIDTAWSRLGKLASNCEKQPASLNLMVGPLSFRKKERNIQRRERLQKAPNVLTQPTMLNERNITTQENNTTKNVLHISRLLQAHQPVNFLKFITNPQSYPQTVENLFYVSFLFKEGKAALVENESGILMLETRIPPTDDQVVAGEIRNIQLVLDMTMDLYENIIKEYNIKESIIPTRAPVETSTNSNTWYG
modifications: ubiquitination at K181 (detected by MS)
B2: Ubc7 (enzyme, UniProt O00102 1-166)
chain: MSKAMALRRLMKEYKELTENGPDGITAGPSNEDDFFTWDCLIQGPDGTPFEGGLYPATLKFPSDYPLGPPTLKFECEFFHPNVYKDGTVCISILHAPGDDPNMYESSSERWSPVQSVEKILLSVMSMLAEPNDESGANIDACKMWREDREEYCRVVRRLARKTLGL
B3: Uba1 (E1 ubiquitin-activating enzyme) (enzyme, UniProt O94609 1-1012)
chain: MSNNMNIDQTDQNTIDEGLYSRQLYVLGHEAMKQMSQSNVLIIGCKGLGVEIAKNVCLAGVKSVTLYDPQPTRIEDLSSQYFLTEDDIGVPRAKVTVSKLAELNQYVPVSVVDELSTEYLKNFKCVVVTETSLTKQLEINDFTHKNHIAYIAADSRGLFGSIFCDFGENFICTDTDGNEPLTGMIASITDDGVVTMLEETRHGLENGDFVKFTEVKGMPGLNDGTPRKVEVKGPYTFSIGSVKDLGSAGYNGVFTQVKVPTKISFKSLRESLKDPEYVYPDFGKMMRPPQYHIAFQALSAFADAHEGSLPRPRNDIDAAEFFEFCKKIASTLQFDVELDEKLIKEISYQARGDLVAMSAFLGGAVAQEVLKATTSKFYPLKQYFYFDSLESLPSSVTISEETCKPRGCRYDGQIAVFGSEFQEKIASLSTFLVGAGAIGCEMLKNWAMMGVATGESGHISVTDMDSIEKSNLNRQFLFRPRDVGKLKSECASTAVSIMNPSLTGKITSYQERVGPESEGIFGDEFFEKLSLVTNALDNVEARMYVDRRCVFFEKPLLESGTLGTKGNTQVVVPHLTESYGSSQDPPEKSFPICTLKNFPNRIEHTIAWARDLFEGLFKQPIDNVNMYLSSPNFLETSLKTSSNPREVLENIRDYLVTEKPLSFEECIMWARLQFDKFFNNNIQQLLFNFPKDSVTSTGQPFWSGPKRAPTPLSFDIHNREHFDFIVAAASLYAFNYGLKSETDPAIYERVLAGYNPPPFAPKSGIKIQVNENEEAPETAANKDKQELKSIADSLPPPSSLVGFRLTPAEFEKDDDSNHHIDFITAASNLRAMNYDITPADRFKTKFVAGKIVPAMCTSTAVVSGLVCLELVKLVDGKKKIEEYKNGFFNLAIGLFTFSDPIASPKMKVNGKEIDKIWDRYNLPDCTLQELIDYFQKEEGLEVTMLSSGVSLLYANFQPPKKLAERLPLKISELVEQITKKKLEPFRKHLVLEICCDDANGEDVEVPFICIKL

What was measured:
Nse1-HBH (S. pombe) = target: T1, Nse1-HBH (S. pombe) (UniProt Q53EK2); assay: affinity purification with mass spectrometry; Nse1-HBH tagged at the endogenous locus in S. pombe; proteins cross-linked by 1% formaldehyde; tandem purification under denaturing conditions on Ni sepharose and Streptavidin agarose; trypsin digest, LC-MS; untagged strain as control for contaminants
T1 sequence: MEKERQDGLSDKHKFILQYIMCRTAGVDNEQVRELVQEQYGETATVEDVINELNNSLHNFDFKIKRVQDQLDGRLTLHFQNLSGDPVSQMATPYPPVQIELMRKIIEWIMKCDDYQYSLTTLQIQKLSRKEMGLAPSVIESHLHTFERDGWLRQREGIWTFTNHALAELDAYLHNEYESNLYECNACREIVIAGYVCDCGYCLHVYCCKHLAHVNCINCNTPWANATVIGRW

[1] = target: T2, Nse1-R188E-HBH (S. pombe) (UniProt Q53EK2); assay: as above
T2 sequence: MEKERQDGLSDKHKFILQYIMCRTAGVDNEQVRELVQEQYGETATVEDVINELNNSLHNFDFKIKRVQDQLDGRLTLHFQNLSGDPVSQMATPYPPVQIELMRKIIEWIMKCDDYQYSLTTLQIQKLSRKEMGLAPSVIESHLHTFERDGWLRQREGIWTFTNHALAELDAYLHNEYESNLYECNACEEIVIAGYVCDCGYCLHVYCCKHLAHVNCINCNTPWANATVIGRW

| Binder | binding (Nse1-HBH (S. pombe)) | binding [1] |
| --- | --- | --- |
| B1 | binds | – |
| B2 | binds | no binding |
| B3 | – | no binding |
